Source: PubChem BioAssay AID1259254 (NCATS, 2017)

- Assay: 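Finding genes that stop cells copying their DNA twice in one cycle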 (primary screen)
- Cell system: human HCT116 colorectal cancer cells
- Reagent: single siRNA against human genes
- Timing: 3 days
- Detection: 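Imaged Hoechst DNA stain sorts each cell into a cycle phase by DNA amount; per plate, G2 fraction set to 0% for non-targeting and 100% for GMNN siRNA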
- Scale: G2 robust z-score: higher = more G2 cells, more excess DNA replication
- Call rule: 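An siRNA counts as active if its G2 robust z-score lies at least 5 MADs above the screen median; here such calls match roughly 38% of GMNN control or more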
Shown is a random part of about 59,000 deposited reagents. Over the whole deposit, about 1,550 (2.6%) were called active. 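G2 share is only a proxy for re-replication; each gene was hit by three separate siRNAs, and active genes were retested.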 Reagents against one gene are numbered here. Further read-outs or replicates are left out here. No sequences are given here. Not stated in the record: the amount of reagent.

{"Gene":"DIPK1C","reagent":1,"G2 robust z-score":0.151,"call":"inactive"}
{"Gene":"DIPK1C","reagent":2,"G2 robust z-score":0.892,"call":"inactive"}
{"Gene":"DIPK1C","reagent":3,"G2 robust z-score":-0.206,"call":"inactive"}
{"Gene":"TMED5","reagent":1,"G2 robust z-score":0.0608,"call":"inactive"}
{"Gene":"TMED5","reagent":2,"G2 robust z-score":-0.795,"call":"inactive"}
{"Gene":"TMED5","reagent":3,"G2 robust z-score":-0.0564,"call":"inactive"}
{"Gene":"INPP5J","reagent":1,"G2 robust z-score":0.955,"call":"inactive"}
{"Gene":"INPP5J","reagent":2,"G2 robust z-score":5.84,"call":"active"}
{"Gene":"INPP5J","reagent":3,"G2 robust z-score":-0.499,"call":"inactive"}
{"Gene":"KRTAP1-1","reagent":1,"G2 robust z-score":0.967,"call":"inactive"}
{"Gene":"KRTAP1-1","reagent":2,"G2 robust z-score":1.83,"call":"inactive"}
{"Gene":"KRTAP1-1","reagent":3,"G2 robust z-score":-1.1,"call":"inactive"}

A stretch taken from the entries so far, as a working copy:
{"Gene":"INPP5J","reagent":2,"G2 robust z-score":5.84,"call":"active"}
{"Gene":"INPP5J","reagent":3,"G2 robust z-score":-0.499,"call":"inactive"}

More reagents:
{"Gene":"TMOD2","reagent":1,"G2 robust z-score":-0.24,"call":"inactive"}
{"Gene":"TMOD2","reagent":2,"G2 robust z-score":-0.0065,"call":"inactive"}
{"Gene":"TMOD2","reagent":3,"G2 robust z-score":1.43,"call":"inactive"}
{"Gene":"CCDC3","reagent":1,"G2 robust z-score":-1.13,"call":"inactive"}
{"Gene":"CCDC3","reagent":2,"G2 robust z-score":-0.531,"call":"inactive"}
{"Gene":"CCDC3","reagent":3,"G2 robust z-score":0.32,"call":"inactive"}
